In the supplement of paper PMC10849652:
The other results are listed elsewhere or left out.

Chains of the proteins cited; added tags and fusions are not shown. Lines headed by an entry give the natural chain unless they say otherwise; changes in a name come on top.
UniProt P60842, whole entry, looked up: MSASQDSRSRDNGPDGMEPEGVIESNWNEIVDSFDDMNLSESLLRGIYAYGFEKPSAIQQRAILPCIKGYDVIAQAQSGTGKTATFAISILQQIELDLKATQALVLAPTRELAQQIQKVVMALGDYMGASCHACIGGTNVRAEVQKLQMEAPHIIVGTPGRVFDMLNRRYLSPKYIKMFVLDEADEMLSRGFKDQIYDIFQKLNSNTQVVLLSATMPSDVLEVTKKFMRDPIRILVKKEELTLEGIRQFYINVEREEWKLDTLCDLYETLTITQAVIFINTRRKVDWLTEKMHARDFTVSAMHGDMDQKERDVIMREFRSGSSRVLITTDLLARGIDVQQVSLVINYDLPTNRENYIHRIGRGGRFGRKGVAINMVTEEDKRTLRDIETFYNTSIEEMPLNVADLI
UniProt Q96L91, whole entry, looked up: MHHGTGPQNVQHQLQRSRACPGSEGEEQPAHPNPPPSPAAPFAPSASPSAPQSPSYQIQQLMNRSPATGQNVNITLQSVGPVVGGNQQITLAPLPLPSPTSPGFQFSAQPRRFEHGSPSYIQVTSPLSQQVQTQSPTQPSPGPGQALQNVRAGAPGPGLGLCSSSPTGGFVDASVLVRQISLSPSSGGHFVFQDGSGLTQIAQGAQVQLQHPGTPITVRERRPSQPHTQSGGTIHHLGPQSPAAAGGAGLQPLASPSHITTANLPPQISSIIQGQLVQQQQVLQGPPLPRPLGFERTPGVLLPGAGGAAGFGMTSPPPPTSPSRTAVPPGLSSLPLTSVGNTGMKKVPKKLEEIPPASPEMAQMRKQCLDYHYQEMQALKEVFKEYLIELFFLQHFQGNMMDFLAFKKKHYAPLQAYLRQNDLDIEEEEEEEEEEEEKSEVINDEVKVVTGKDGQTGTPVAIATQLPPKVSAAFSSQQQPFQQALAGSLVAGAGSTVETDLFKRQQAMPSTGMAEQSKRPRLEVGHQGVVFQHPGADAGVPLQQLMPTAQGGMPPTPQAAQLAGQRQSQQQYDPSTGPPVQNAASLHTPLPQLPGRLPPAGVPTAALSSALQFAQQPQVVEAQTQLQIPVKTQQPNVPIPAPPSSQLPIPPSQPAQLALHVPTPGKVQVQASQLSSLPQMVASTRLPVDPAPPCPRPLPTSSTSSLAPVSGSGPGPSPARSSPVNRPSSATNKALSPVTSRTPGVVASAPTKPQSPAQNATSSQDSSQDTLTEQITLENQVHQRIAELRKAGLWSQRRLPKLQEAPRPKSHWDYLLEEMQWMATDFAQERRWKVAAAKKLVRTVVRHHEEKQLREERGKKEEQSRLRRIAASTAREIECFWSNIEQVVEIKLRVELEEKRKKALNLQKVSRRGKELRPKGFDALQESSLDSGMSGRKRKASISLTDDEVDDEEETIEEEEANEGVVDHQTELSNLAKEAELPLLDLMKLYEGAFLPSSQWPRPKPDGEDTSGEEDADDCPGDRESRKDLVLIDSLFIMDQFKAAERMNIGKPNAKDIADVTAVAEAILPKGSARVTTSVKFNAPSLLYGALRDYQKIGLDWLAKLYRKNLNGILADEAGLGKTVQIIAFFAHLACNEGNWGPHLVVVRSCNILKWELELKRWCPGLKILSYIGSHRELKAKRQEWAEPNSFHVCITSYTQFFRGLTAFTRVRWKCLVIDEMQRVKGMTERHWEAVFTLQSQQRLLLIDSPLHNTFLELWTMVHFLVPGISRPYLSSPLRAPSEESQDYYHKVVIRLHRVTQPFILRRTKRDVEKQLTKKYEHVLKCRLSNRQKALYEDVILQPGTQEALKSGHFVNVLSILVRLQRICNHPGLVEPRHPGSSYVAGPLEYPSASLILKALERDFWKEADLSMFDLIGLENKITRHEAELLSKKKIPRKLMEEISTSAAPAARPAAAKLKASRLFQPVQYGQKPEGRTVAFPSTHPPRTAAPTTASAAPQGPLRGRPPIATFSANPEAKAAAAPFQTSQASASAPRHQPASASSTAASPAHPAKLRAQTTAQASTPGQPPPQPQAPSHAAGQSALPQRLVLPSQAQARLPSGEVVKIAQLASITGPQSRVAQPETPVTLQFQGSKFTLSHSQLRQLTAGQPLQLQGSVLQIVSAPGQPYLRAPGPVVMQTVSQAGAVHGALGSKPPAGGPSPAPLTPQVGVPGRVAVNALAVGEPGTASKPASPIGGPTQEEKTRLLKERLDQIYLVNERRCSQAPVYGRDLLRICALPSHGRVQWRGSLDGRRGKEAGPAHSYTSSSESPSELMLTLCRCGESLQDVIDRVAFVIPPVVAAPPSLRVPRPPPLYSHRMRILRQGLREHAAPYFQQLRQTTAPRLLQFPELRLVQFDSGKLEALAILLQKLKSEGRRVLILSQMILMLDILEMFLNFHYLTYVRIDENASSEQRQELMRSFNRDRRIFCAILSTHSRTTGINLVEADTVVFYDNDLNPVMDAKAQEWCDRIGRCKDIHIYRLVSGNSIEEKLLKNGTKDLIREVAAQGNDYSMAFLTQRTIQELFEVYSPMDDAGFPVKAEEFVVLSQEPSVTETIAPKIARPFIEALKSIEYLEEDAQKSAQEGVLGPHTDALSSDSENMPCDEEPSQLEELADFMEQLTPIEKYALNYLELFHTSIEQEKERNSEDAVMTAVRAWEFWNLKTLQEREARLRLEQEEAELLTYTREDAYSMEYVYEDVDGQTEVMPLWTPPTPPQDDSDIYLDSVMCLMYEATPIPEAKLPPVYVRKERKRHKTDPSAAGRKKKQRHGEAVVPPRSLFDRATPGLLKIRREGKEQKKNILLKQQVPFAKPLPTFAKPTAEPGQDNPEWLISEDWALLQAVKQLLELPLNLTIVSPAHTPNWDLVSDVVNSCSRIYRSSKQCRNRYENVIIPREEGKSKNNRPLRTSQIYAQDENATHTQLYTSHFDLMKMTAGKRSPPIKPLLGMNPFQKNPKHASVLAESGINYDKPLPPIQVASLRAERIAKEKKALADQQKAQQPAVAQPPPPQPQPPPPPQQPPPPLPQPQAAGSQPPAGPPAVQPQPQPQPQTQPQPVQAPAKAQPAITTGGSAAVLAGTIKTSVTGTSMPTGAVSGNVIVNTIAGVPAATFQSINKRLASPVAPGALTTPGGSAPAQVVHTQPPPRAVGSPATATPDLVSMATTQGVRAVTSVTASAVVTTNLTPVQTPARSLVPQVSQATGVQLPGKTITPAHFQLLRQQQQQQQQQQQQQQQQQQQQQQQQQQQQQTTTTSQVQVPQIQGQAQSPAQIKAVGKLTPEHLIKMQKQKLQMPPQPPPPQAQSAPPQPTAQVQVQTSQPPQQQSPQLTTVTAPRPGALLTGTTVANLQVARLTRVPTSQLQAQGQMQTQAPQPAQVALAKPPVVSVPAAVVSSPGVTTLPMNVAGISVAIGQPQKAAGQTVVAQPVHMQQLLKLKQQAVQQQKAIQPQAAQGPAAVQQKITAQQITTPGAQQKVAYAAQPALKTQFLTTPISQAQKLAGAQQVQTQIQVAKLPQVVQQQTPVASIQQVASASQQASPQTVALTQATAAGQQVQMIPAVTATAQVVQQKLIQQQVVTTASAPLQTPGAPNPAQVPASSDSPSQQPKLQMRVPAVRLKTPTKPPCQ
UniProt Q7L2H7, whole entry, looked up: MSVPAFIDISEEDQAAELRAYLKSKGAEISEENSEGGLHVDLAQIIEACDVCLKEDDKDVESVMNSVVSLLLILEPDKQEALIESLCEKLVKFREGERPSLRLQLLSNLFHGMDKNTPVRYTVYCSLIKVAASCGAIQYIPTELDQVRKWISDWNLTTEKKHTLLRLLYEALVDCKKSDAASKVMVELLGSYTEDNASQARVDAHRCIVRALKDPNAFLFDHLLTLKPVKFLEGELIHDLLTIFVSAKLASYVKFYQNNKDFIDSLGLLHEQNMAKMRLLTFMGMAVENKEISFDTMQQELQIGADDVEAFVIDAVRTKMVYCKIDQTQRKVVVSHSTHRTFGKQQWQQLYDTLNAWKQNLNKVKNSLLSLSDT
UniProt O43768: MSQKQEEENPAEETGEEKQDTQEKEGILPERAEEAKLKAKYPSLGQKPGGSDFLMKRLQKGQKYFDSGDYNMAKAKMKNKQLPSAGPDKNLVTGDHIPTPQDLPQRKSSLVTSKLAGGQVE
UniProt Q9GZV4: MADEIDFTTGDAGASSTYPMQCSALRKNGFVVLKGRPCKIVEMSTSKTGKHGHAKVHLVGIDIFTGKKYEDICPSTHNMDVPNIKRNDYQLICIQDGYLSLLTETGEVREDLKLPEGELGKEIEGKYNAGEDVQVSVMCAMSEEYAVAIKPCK
UniProt Q9P0I2: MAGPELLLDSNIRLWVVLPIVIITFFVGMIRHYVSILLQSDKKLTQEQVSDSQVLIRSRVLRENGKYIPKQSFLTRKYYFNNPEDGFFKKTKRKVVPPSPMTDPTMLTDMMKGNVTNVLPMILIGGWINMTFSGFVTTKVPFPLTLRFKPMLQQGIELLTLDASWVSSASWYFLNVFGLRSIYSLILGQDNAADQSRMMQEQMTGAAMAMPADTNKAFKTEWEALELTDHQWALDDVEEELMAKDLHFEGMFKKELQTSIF
UniProt Q9Y282: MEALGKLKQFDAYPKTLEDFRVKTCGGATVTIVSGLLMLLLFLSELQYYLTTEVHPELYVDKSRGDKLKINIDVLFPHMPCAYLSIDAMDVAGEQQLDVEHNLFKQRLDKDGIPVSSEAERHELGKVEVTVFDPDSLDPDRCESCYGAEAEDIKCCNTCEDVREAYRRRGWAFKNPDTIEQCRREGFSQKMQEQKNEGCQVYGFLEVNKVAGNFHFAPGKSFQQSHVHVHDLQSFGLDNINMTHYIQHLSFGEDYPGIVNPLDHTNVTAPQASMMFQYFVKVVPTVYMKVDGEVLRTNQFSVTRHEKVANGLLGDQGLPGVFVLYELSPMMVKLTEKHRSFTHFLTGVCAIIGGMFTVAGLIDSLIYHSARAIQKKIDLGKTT
UniProt P19525: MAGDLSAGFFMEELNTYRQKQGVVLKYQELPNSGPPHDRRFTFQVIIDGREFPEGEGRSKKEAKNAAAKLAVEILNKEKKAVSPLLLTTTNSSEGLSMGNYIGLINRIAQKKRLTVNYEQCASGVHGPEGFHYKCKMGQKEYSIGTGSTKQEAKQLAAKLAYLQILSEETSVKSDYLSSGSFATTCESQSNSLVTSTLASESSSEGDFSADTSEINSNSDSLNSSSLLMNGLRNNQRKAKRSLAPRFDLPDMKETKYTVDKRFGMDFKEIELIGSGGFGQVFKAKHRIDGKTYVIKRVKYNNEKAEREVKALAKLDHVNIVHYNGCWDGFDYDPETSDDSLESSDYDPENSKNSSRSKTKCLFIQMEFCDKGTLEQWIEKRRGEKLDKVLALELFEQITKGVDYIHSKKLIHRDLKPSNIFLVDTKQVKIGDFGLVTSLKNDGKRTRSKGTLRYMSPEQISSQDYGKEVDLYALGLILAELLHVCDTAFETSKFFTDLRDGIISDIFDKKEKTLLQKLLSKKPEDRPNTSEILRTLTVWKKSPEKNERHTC
UniProt Q6ZTU2, whole entry, looked up: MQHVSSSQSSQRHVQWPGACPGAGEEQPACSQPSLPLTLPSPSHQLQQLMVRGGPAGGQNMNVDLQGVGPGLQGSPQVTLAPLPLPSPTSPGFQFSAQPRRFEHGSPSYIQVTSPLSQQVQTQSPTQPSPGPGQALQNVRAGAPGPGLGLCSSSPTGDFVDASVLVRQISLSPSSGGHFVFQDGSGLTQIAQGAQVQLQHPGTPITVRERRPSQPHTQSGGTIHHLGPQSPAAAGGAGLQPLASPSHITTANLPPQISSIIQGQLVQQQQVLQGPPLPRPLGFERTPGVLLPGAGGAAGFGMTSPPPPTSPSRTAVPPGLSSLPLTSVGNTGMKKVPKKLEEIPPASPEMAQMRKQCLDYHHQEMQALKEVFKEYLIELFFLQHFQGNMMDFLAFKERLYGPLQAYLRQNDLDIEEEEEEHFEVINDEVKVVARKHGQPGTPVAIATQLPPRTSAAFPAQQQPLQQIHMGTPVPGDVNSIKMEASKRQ
UniProt P60228, whole entry, looked up: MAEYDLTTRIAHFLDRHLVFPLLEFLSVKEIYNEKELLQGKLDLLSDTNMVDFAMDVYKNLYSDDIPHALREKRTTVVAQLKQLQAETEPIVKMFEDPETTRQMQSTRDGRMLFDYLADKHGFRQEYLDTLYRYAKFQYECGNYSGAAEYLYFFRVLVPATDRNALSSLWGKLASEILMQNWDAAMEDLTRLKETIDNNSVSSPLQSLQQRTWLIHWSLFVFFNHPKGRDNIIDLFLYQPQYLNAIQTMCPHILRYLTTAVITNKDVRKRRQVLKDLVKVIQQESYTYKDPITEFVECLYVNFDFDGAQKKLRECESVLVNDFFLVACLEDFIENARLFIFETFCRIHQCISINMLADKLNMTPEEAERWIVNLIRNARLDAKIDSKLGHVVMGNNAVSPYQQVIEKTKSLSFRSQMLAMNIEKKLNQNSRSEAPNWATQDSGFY

Assays:
Experiment in all cases: log2 fold change, soluble protein after heating vs DMSO (PISA); higher = thermal stabilisation; K562 lysate, 10 uM; active = over 0.2 and 3.5 SD of the protein, either way, in both replicates (recomputed)
alvocidib = compound: CN1CC[C@H](c2c(O)cc(O)c3c(=O)cc(-c4ccccc4Cl)oc23)[C@H](O)C1 [alvocidib]
Procedure, shortened: (§1)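 Soluble protein was defined as the supernatant remaining after 21,000xg for 90 min, following pooling of heated aliquots and adjustment to 0.5% NP-40 at 4°C. Before that, crude K562 extract at 1 mg/mL protein in PBS pH 7.4 with 1 mM MgCl2 was treated with 10 μM compound for 30 min and heated for 3 min across 48°C-58°C. Quantification used TMTpro 16plex LC-MS/MS with channel sums equalised, and values are log-two fold changes in thermal stability relative to solvent controls from duplicates.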

Tubastatin A = compound: CN1CCc2c(c3ccccc3n2Cc2ccc(C(=O)NO)cc2)C1 [Tubastatin A]
Procedure, shortened: as §1

[1] = compound: CNC(=O)C1=CC=CC=C1NC2=NC(=NC=C2Cl)NC3=C(C=C(C=C3)N4CCOCC4)OC
Procedure, shortened: as §1

defactinib = compound: CNC(=O)c1ccc(Nc2ncc(C(F)(F)F)c(NCc3nccnc3N(C)S(C)(=O)=O)n2)cc1 [defactinib]
Procedure, shortened: as §1

[2] = compound: CNc1nc(-c2ccc3c(N)n[nH]c3c2)cc(N2C[C@@H](C(=O)NC3CCCCC3)CC[C@H]2C)n1
Procedure, shortened: as §1

encorafenib = compound: COC(=O)N[C@@H](C)CNc1nccc(-c2cn(C(C)C)nc2-c2cc(Cl)cc(NS(C)(=O)=O)c2F)n1 [encorafenib]
Procedure, shortened: as §1

[3] = compound: COC(=O)[C@H](CCSC)NC(=O)C1=C(C=C(C=C1)NC[C@H](CS)N)C2=CC=CC=C2
Procedure, shortened: as §1

alisertib = compound: COc1cc(Nc2ncc3c(n2)-c2ccc(Cl)cc2C(c2c(F)cccc2OC)=NC3)ccc1C(=O)O [alisertib]
Procedure, shortened: as §1

[4] = compound: COc1cc2nc(-c3cc(F)ccc3O)nc(N[C@@H]3CNC[C@H]3C(C)(C)O)c2cc1OC
Procedure, shortened: as §1

gefitinib = compound: COc1cc2ncnc(Nc3ccc(F)c(Cl)c3)c2cc1OCCCN1CCOCC1 [gefitinib]
Procedure, shortened: as §1

lapatinib = compound: CS(=O)(=O)CCNCc1ccc(-c2ccc3ncnc(Nc4ccc(OCc5cccc(F)c5)c(Cl)c4)c3c2)o1 [lapatinib]
Procedure, shortened: as §1

pictilisib = compound: CS(=O)(=O)N1CCN(Cc2cc3nc(-c4cccc5[nH]ncc45)nc(N4CCOCC4)c3s2)CC1 [pictilisib]
Procedure, shortened: as §1

crizotinib = compound: C[C@@H](Oc1cc(-c2cnn(C3CCNCC3)c2)cnc1N)c1c(Cl)ccc(F)c1Cl [crizotinib]
Procedure, shortened: as §1

[5] = compound: C[C@H](C1=CC=C(C=C1)C(=O)NC2=C3C=CNC3=NC=C2)N
Procedure, shortened: as §1

duvelisib = compound: C[C@H](Nc1ncnc2nc[nH]c12)c1cc2cccc(Cl)c2c(=O)n1-c1ccccc1 [duvelisib]
Procedure, shortened: as §1

gandotinib = compound: Cc1cc(Nc2cc(CN3CCOCC3)c3nc(C)c(Cc4ccc(Cl)cc4F)n3n2)n[nH]1 [gandotinib]
Procedure, shortened: as §1

tozasertib = compound: Cc1cc(Nc2cc(N3CCN(C)CC3)nc(Sc3ccc(NC(=O)C4CC4)cc3)n2)n[nH]1 [tozasertib]
Procedure, shortened: as §1

doramapimod = compound: Cc1ccc(-n2nc(C(C)(C)C)cc2NC(=O)Nc2ccc(OCCN3CCOCC3)c3ccccc23)cc1 [doramapimod]
Procedure, shortened: as §1

bafetinib = compound: Cc1ccc(NC(=O)c2ccc(CN3CC[C@H](N(C)C)C3)c(C(F)(F)F)c2)cc1Nc1nccc(-c2cncnc2)n1 [bafetinib]
Procedure, shortened: as §1

[6] = compound: Cc1cccc(CC(=O)N2CCc3c2ccc(-c2cn(C)c4ncnc(N)c24)c3F)n1
Procedure, shortened: as §1

Target | log2 fold change (alvocidib) | log2 fold change (Tubastatin A) | log2 fold change [1] | log2 fold change (defactinib) | log2 fold change [2] | log2 fold change (encorafenib) | log2 fold change [3] | log2 fold change (alisertib) | log2 fold change [4] | log2 fold change (gefitinib) | log2 fold change (lapatinib) | log2 fold change (pictilisib) | log2 fold change (crizotinib) | log2 fold change [5] | log2 fold change (duvelisib) | log2 fold change (gandotinib) | log2 fold change (tozasertib) | log2 fold change (doramapimod) | log2 fold change (bafetinib) | log2 fold change [6]
EIF4A1 (UniProt P60842) | inactive: 0.011 | inactive: 0.032 | inactive: 0.001 | inactive: -0.018 | inactive: 0.028 | inactive: -0.016 | inactive: 0.041 | inactive: 0.011 | inactive: 0.024 | inactive: -0.035 | inactive: -0.027 | inactive: 0.001 | inactive: -0.058 | inactive: -0.036 | inactive: 0.003 | inactive: -0.008 | inactive: -0.036 | inactive: -0.006 | inactive: -0.012 | inactive: 0.031
ERCC4 (UniProt Q92889) | inactive: -0.268 | inactive: -0.021 | inactive: 0.058 | inactive: 0.101 | inactive: -0.029 | inactive: -0.065 | inactive: -0.001 | inactive: 0.047 | inactive: 0.024 | inactive: 0.044 | inactive: -0.023 | inactive: -0.013 | inactive: -0.031 | active: -0.544 | inactive: 0.003 | inactive: 0.054 | inactive: -0.059 | inactive: 0.087 | inactive: -0.101 | inactive: 0.159
EIF3C (UniProt Q99613) | inactive: 0.006 | inactive: -0.02 | inactive: 0.069 | inactive: -0.028 | inactive: -0.033 | inactive: -0.001 | inactive: 0.1 | inactive: 0.018 | inactive: -0.004 | inactive: -0.02 | inactive: -0.015 | inactive: 0.011 | inactive: -0.06 | inactive: -0.029 | inactive: 0.016 | inactive: -0.066 | inactive: -0.014 | inactive: 0.016 | inactive: -0.038 | inactive: 0.069
EML3 (UniProt Q32P44) | inactive: -0.038 | inactive: -0.002 | inactive: -0.001 | inactive: 0.01 | inactive: 0.017 | inactive: 0.025 | inactive: 0.039 | inactive: 0.011 | inactive: 0.004 | inactive: 0 | inactive: -0.015 | inactive: -0.003 | inactive: 0.002 | inactive: -0.037 | inactive: -0.024 | inactive: 0.029 | inactive: 0.002 | inactive: 0.028 | inactive: -0.035 | inactive: 0.028
ERC1 (UniProt X6RLX0) | inactive: 0.005 | inactive: 0.044 | inactive: 0.006 | inactive: -0.005 | inactive: 0.026 | inactive: 0.013 | inactive: -0.004 | inactive: -0.008 | inactive: 0.002 | inactive: 0.031 | inactive: -0.005 | inactive: -0.036 | inactive: 0.034 | inactive: 0.037 | inactive: 0.014 | inactive: 0.01 | inactive: -0.007 | inactive: -0.005 | inactive: 0 | inactive: -0.022
EP400 isoform 5 (UniProt Q96L91) | inactive: 0.015 | inactive: -0.022 | inactive: 0.037 | inactive: 0.01 | inactive: 0.035 | inactive: -0.028 | inactive: 0.068 | inactive: 0.004 | inactive: 0.023 | inactive: -0.055 | inactive: 0.052 | inactive: -0.068 | inactive: -0.04 | inactive: -0.018 | inactive: -0.036 | inactive: -0.012 | inactive: -0.041 | inactive: 0.02 | inactive: -0.053 | inactive: -0.011
EIF3M (UniProt Q7L2H7) | inactive: 0.07 | inactive: -0.02 | inactive: -0.003 | inactive: 0 | inactive: 0.029 | inactive: 0.001 | inactive: 0 | inactive: 0.015 | inactive: 0.001 | inactive: -0.044 | inactive: 0.001 | inactive: -0.006 | inactive: 0.013 | inactive: 0.133 | inactive: -0.003 | inactive: -0.078 | inactive: -0.042 | inactive: -0.048 | inactive: 0.047 | inactive: -0.037
ENSA isoform 3 (UniProt O43768) | inactive: 0.015 | inactive: -0.038 | inactive: -0.012 | inactive: 0.03 | inactive: -0.027 | inactive: -0.024 | inactive: -0.053 | inactive: -0.014 | inactive: 0.001 | inactive: 0.001 | inactive: 0.021 | inactive: 0.02 | inactive: 0.058 | inactive: 0.103 | inactive: 0.049 | inactive: -0.042 | inactive: -0.027 | inactive: -0.068 | inactive: 0.058 | inactive: -0.103
EIF5A2 (UniProt Q9GZV4) | inactive: -0.043 | inactive: 0.048 | inactive: 0.027 | inactive: -0.038 | inactive: -0.04 | inactive: -0.021 | inactive: -0.023 | inactive: -0.042 | inactive: -0.028 | inactive: -0.128 | inactive: 0.028 | inactive: -0.073 | inactive: -0.112 | inactive: -0.246 | inactive: 0.052 | inactive: 0.068 | inactive: -0.006 | inactive: 0.053 | inactive: -0.033 | inactive: 0.004
EMC3 (UniProt Q9P0I2) | inactive: 0.03 | inactive: 0.097 | inactive: 0.037 | inactive: -0.009 | inactive: 0.014 | inactive: 0.018 | inactive: -0.016 | inactive: 0.047 | inactive: -0.013 | inactive: -0.02 | inactive: -0.031 | inactive: 0.004 | inactive: 0.01 | inactive: 0.004 | inactive: 0.014 | inactive: -0.043 | inactive: 0.06 | inactive: -0.029 | inactive: -0.06 | inactive: 0.054
ERGIC3 isoform 3 (UniProt Q9Y282) | inactive: -0.025 | inactive: 0.015 | inactive: -0.06 | inactive: 0.106 | inactive: -0.12 | inactive: 0.019 | inactive: -0.046 | inactive: 0.003 | inactive: -0.031 | inactive: 0.068 | inactive: -0.143 | inactive: -0.094 | inactive: -0.096 | inactive: 0 | inactive: -0.045 | inactive: -0.166 | inactive: -0.002 | inactive: 0.043 | inactive: -0.098 | inactive: 0.077
EIF2AK2 (UniProt P19525) | inactive: 0.004 | inactive: -0.099 | inactive: 0.091 | inactive: 0.049 | inactive: 0.083 | inactive: 0.087 | inactive: 0.153 | inactive: 0.003 | inactive: 0.029 | inactive: -0.055 | inactive: -0.003 | inactive: 0.03 | inactive: 0.12 | inactive: -0.061 | inactive: -0.036 | inactive: -0.022 | inactive: -0.009 | inactive: 0.011 | inactive: -0.036 | inactive: 0.022
EP400P1 isoform 6 (UniProt Q6ZTU2) | inactive: 0.079 | inactive: 0.045 | inactive: -0.017 | inactive: -0.139 | inactive: 0.07 | inactive: -0.032 | inactive: 0.033 | inactive: -0.01 | inactive: 0.009 | inactive: 0.014 | inactive: 0.04 | inactive: -0.002 | inactive: 0.012 | inactive: -0.151 | inactive: -0.045 | inactive: 0 | inactive: 0.023 | inactive: -0.035 | inactive: 0.116 | inactive: 0.035
ELL (UniProt P55199) | inactive: 0.01 | inactive: -0.038 | inactive: 0.042 | inactive: -0.004 | inactive: -0.09 | inactive: -0.014 | inactive: 0.017 | inactive: 0.022 | inactive: 0.022 | inactive: 0.087 | inactive: 0.056 | inactive: 0.009 | inactive: -0.003 | inactive: -0.049 | inactive: 0.055 | inactive: -0.029 | inactive: 0.017 | inactive: 0.019 | inactive: -0.051 | inactive: -0.066
EIF3E (UniProt P60228) | inactive: 0.033 | inactive: -0.075 | inactive: 0.05 | inactive: -0.008 | inactive: -0.035 | inactive: -0.036 | inactive: 0.103 | inactive: 0.029 | inactive: -0.024 | inactive: 0.014 | inactive: -0.007 | inactive: -0.035 | inactive: -0.064 | inactive: 0.007 | inactive: 0.028 | inactive: -0.078 | inactive: -0.01 | inactive: 0.102 | inactive: -0.058 | inactive: 0.05
ELOB (UniProt Q15370) | inactive: 0.013 | inactive: 0.013 | inactive: -0.036 | inactive: 0.054 | inactive: 0.028 | inactive: -0.003 | inactive: 0 | inactive: 0.022 | inactive: 0 | inactive: -0.091 | inactive: 0.03 | inactive: 0.052 | inactive: 0.002 | inactive: 0.009 | inactive: -0.014 | inactive: 0.034 | inactive: -0.014 | inactive: -0.037 | inactive: -0.01 | inactive: 0.064

Record cards, from the list above. Order of values: log2 fold change (alvocidib)	log2 fold change (Tubastatin A)	log2 fold change [1]	log2 fold change (defactinib)	log2 fold change [2]	log2 fold change (encorafenib)	log2 fold change [3]	log2 fold change (alisertib)	log2 fold change [4]	log2 fold change (gefitinib)	log2 fold change (lapatinib)	log2 fold change (pictilisib)	log2 fold change (crizotinib)	log2 fold change [5]	log2 fold change (duvelisib)	log2 fold change (gandotinib)	log2 fold change (tozasertib)	log2 fold change (doramapimod)	log2 fold change (bafetinib)	log2 fold change [6]
ELOB (UniProt Q15370) as listed: inactive: 0.013	inactive: 0.013	inactive: -0.036	inactive: 0.054	inactive: 0.028	inactive: -0.003	inactive: 0	inactive: 0.022	inactive: 0	inactive: -0.091	inactive: 0.03	inactive: 0.052	inactive: 0.002	inactive: 0.009	inactive: -0.014	inactive: 0.034	inactive: -0.014	inactive: -0.037	inactive: -0.01	inactive: 0.064
EML3 (UniProt Q32P44) as listed: inactive: -0.038	inactive: -0.002	inactive: -0.001	inactive: 0.01	inactive: 0.017	inactive: 0.025	inactive: 0.039	inactive: 0.011	inactive: 0.004	inactive: 0	inactive: -0.015	inactive: -0.003	inactive: 0.002	inactive: -0.037	inactive: -0.024	inactive: 0.029	inactive: 0.002	inactive: 0.028	inactive: -0.035	inactive: 0.028
